In publication doi:10.1101/2024.02.28.577416:

Assays:
[1] = target: T1, SCO4122 (MarR family regulator) (Streptomyces coelicolor) (UniProt Q9KYE8); experiment: SPR
T1 sequence (looked up, limits assumed): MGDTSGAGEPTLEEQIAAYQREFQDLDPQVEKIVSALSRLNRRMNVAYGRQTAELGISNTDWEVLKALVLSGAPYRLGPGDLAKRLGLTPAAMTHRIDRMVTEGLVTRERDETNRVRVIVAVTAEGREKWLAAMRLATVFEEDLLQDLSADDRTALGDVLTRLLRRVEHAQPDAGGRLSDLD

[2] = target: T2, M93L-SCO4122 (Streptomyces coelicolor) (UniProt Q9KYE8); experiment: SPR; conditions: protein immobilized on CM5, no drug
T2 sequence (looked up, limits assumed): T1 sequence (looked up, limits assumed) with M93L

[3] = protein immobilized on CM5, no drug

## CTCTCCTACTCCCCCAGCTACCGCTGTGCCACTGCCACTTACTTGCCGCCCGGCAAGTTGTCTACACTGGGAAAGGTAGGCGCGTAACTAGCCGGGCGTCAAGTAAGTTTTTCGGAAAGTGCGCGGGGCAGGAGGTGCGTAGGAGGATGGGCGGCACG (double strand) [Non-specific (NS) DNA, SCO3366 promoter region]
[1]; [3]
  binding result: no binding

## TGCCCTGGTCACGTTCACCCTCTCTTGATCTCTCGGATCGTCCGCTCCAGCCGTTAGAGCTGAAGACTTAGAAGCTAAAGTTCGAAGGTGAAGAGTACATATCGAAGGACTTCAAAGCAAAGGAGTTGCGTGCCATACTGCGGCC (double strand)
[1]; [3]
  Kd: 0.4 µM
[2]
  Kd: 2.11 µM

## TGCCCTGGTCACGTTCACCCTCTCTTGATCTCTCGGATCGTCCGCTCCAGCCGTTAGAGCTGAAGACTTAGAAGCTAAAGTTCGAAGGTGAAGAGTACATATCGAAGGACTTCAAAGCAAAGGAGTTGCGTGCCATACTGCGGCC (double strand) [5' biotinylated sco4121 control region]
[1]; DNA immobilized on SA chip, no drug
  Kd: 0.226 µM
[1]; chloramphenicol (50-200 nM), 2 uM protein
  Kd: 0.0818 µM
[1]; ciprofloxacin (5-20 nM), 2 uM protein
  Kd: 0.0031 µM
[1]; streptomycin (50-200 nM), 2 uM protein
  Kd: 0.0091 µM
[1]; tetracycline (5-20 nM), 2 uM protein, no change in KD
  binding result: binds

Where a chain is given by its changes, count along the chain named. For at least one entry, the source does not settle the construct or the ends of the probe. For some assays here: A negative result means that nothing was seen under these conditions. Protein sequences can lack the tags named with them.
